Where a chain is given by its changes, count along the chain named. Names and notes keep the numbering of the source. Results are given in words; binding and its absence hold for the method and conditions named. Some entries that bind do so weakly or less than the wild type. One block for each binder: values may come before it.
What was measured:
Assay in all cases: AP-ligand binding, COS-7
[1] = molecular target: T1, human NgR1 alanine mutant 114, 117, 139 (human) (UniProt Q9BZR6)
T1 sequence: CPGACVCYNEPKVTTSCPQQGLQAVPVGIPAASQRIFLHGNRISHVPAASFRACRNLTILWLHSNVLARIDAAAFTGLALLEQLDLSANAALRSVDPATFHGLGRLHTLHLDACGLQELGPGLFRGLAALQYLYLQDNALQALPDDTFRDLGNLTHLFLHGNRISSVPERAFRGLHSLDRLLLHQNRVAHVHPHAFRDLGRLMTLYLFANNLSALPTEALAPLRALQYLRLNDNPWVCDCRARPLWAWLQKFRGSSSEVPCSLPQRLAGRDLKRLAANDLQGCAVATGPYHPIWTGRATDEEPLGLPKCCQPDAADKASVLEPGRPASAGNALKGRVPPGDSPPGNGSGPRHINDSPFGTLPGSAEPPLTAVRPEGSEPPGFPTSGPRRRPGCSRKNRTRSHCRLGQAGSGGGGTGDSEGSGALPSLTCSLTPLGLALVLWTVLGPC

[2] = molecular target: T2, human NgR1 alanine mutant 139 (human) (UniProt Q9BZR6)
T2 sequence: T1 sequence with A88D, A91Q

[3] = molecular target: T3, human NgR1 alanine mutant 202, 205 (human) (UniProt Q9BZR6)
T3 sequence: T1 sequence with A88D, A91Q, A113R, H176A, D179A

[4] = molecular target: T4, human NgR1 alanine mutant 210 (human) (UniProt Q9BZR6)
T4 sequence: T1 sequence with A88D, A91Q, A113R, H184A

[5] = molecular target: T5, human NgR1 alanine mutant 63, 65 (human) (UniProt Q9BZR6)
T5 sequence: T1 sequence with F37A, H39A, A88D, A91Q, A113R

[6] = molecular target: T6, human NgR1 alanine mutant 89, 90 (human) (UniProt Q9BZR6)
T6 sequence: T1 sequence with H63A, S64A, A88D, A91Q, A113R

binding [1]: binds
binding [2]: binds
binding [3]: binds
binding [4]: binds
binding [5]: binds
binding [6]: binds
B1: AP-Nogo-66 (ligand, UniProt Q9NQC3 1055-1120, looked up)
chain: RIYKGVIQAIQKSDEGHPFRAYLESEVAISEELVQKYSNSALGHVNCTIKELRRLFLVDDLVDSLK
notes: domain: Nogo-66; construct described elsewhere (Fournier 2001); also called AP-Ng66; Ng66; not shown: alkaline phosphatase (AP); construct described elsewhere

binding [1]: binds
binding [2]: binds
binding [3]: binds
binding [4]: binds
binding [5]: binds
binding [6]: binds
B2: AP-fused Amino-Nogo fragment B4C (a.a. 950-1018) (ligand)
chain: LLPPDVSALATQAEIESIVKPKVLVKEAEKKLPSDTEKEDRSPSAIFSAELSKTSVVDLLYWRDIKKTG
notes: also called AmNg B4C; AP-B4C; not shown: alkaline phosphatase (AP), vector pcAP6

— US20090111753A1, “Nogo-A Polypeptide Fragments, Variant Nogo Receptor-1 Polypeptides, and Uses Thereof” (Yale University, priority 2004, published 2009)
